PubChem BioAssay AID686938 | Drosophila RNAi Screening Center, 2013
The screen tested about 23,000 reagents; shown is an unselected part of those that have a named target and a result. Over the whole deposit, 75 (0.33%) got an active call. 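Raw plate signals without normalisation; calls rest on plate z-scores that were not deposited; ratio present for only 364 wells.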 Not given: the dose of the treatment.

Test: 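Looking for CRAC channel components and the factors controlling them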 (primary screen)
System: Drosophila S2R+ cells
Knock-down reagent: long dsRNA against Drosophila genes, about 0.25 µg dsRNA per well, roughly 10,000 cells
Duration: 5 days of knock-down before the calcium assay
Treatment: thapsigargin (SERCA pump blocker) to empty calcium stores; entry signal taken 4 min after adding it
Measurement: 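Per-well fluo-4 fluorescence in two replicates, unnormalised, measured in resting cells and 4 min after store depletion by the SERCA blocker thapsigargin; ratio of the two present in few wells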
Reading the numbers: calcium entry signal: higher = stronger calcium signal after store depletion; resting calcium signal: higher = higher resting calcium signal
Rule for the call: 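Hit if the duplicate-averaged plate z-score for entry over resting signal is under −3; wells with weak total dye signal (Fmax z < −2) or more than 5 off-targets removed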
Calls: active = strongly reduced calcium entry; inactive = no strong reduction

| predicted target | amplicon | calcium entry signal, replicate 1 (fluorescence units) | calcium entry signal, replicate 2 (fluorescence units) | resting calcium signal, replicate 1 (fluorescence units) | resting calcium signal, replicate 2 (fluorescence units) | Call |
| --- | --- | --- | --- | --- | --- | --- |
| Fit2 (Fermitin 2) | DRSC10908 | 2.97e7 | 4.41e7 | 1.55e7 | 2.72e7 | inactive |
| Cln7 | DRSC11005 | 4.58e7 | 3.69e7 | 2.89e7 | 1.66e7 | inactive |
| AstC (Allatostatin C) | DRSC02403 | 3.58e7 | 5.86e7 | 1.77e7 | 2.48e7 | inactive |
| TwdlK (TweedleK) | DRSC16045 | 1.88e7 | 3.24e7 | 1.27e7 | 1.79e7 | inactive |
| Rchy1 (Ring finger and CHY zinc finger domain containing 1) | DRSC02542 | 2.22e7 | 2.40e7 | 1.29e7 | 1.20e7 | inactive |
| Rchy1 (Ring finger and CHY zinc finger domain containing 1) | DRSC23118 | 3.96e7 | 3.50e7 | 1.98e7 | 1.72e7 | inactive |
| Rab7 | DRSC16810 | 2.14e7 | 2.41e7 | 1.25e7 | 1.32e7 | inactive |
| chm (chameau) | DRSC03341 | 4.39e7 | – | 2.30e7 | – | inactive |
| SMC6 (Structural maintenance of chromosomes 6) | DRSC15829 | 4.49e7 | 4.50e7 | 2.32e7 | 1.97e7 | inactive |
| rad50 | DRSC04523 | 3.74e7 | – | 1.93e7 | – | inactive |
| PQBP1 (Poly-glutamine tract binding protein 1) | DRSC14393 | 5.64e7 | 4.03e7 | 2.55e7 | 1.82e7 | inactive |
| Sec10 (Secretory 10) | DRSC17053 | 2.67e7 | 2.98e7 | 1.41e7 | 1.44e7 | inactive |
| CG17919 | DRSC12571 | 3.60e7 | 4.46e7 | 1.49e7 | 1.98e7 | inactive |
| CG31921 | DRSC00013 | 3.04e7 | 3.40e7 | 1.66e7 | 1.46e7 | inactive |
| hoe2 (hoepel2) | DRSC00459 | 3.07e7 | 3.47e7 | 1.49e7 | 1.56e7 | inactive |
| Obp59a (Odorant-binding protein 59a) | DRSC04160 | 3.56e7 | 4.81e7 | 1.78e7 | 2.15e7 | inactive |
| CG13544 | DRSC04186 | 3.78e7 | 3.86e7 | 2.04e7 | 1.92e7 | inactive |
| CG10702 | DRSC02097 | 4.62e7 | – | 2.10e7 | – | inactive |
| sals (sarcomere length short) | DRSC14925 | 2.79e7 | 3.00e7 | 1.20e7 | 1.36e7 | inactive |
| sals (sarcomere length short) | DRSC16113 | 3.52e7 | 3.20e7 | 1.85e7 | 1.80e7 | inactive |
| CG15465 | DRSC18048 | 3.43e7 | 3.55e7 | 1.68e7 | 1.64e7 | inactive |
| CG31862 | DRSC01245 | 4.68e7 | 4.14e7 | 2.52e7 | 1.90e7 | inactive |
| CG11050 | DRSC02125 | 4.53e7 | – | 3.04e7 | – | inactive |
| CG12861 | DRSC06201 | 2.83e7 | 4.18e7 | 1.43e7 | 1.73e7 | inactive |
| CG12861 | DRSC21960 | 3.79e7 | 4.01e7 | 1.78e7 | 2.12e7 | inactive |
| CG31223 | DRSC15115 | 3.34e7 | 3.25e7 | 1.55e7 | 1.41e7 | inactive |
| CG12910 | DRSC06225 | 3.83e7 | 3.77e7 | 1.67e7 | 1.76e7 | inactive |
| Atg5 (Autophagy-related 5) | DRSC18112 | 4.02e7 | 3.89e7 | 1.79e7 | 1.68e7 | inactive |
| PI31 (Proteasome inhibitor 31 kDa) | DRSC07306 | 3.82e7 | 3.08e7 | 1.65e7 | 1.44e7 | inactive |
| CG7251 | DRSC03039 | 4.68e7 | – | 2.21e7 | – | inactive |
| CG13049 | DRSC09930 | 2.91e7 | 5.41e7 | 1.47e7 | 2.22e7 | inactive |
| CG13314 | DRSC09985 | 3.30e7 | 4.20e7 | 1.59e7 | 1.98e7 | inactive |
| CG8366 | DRSC07153 | 2.82e7 | 2.96e7 | 1.31e7 | 1.51e7 | inactive |
| CG5863 | DRSC15898 | 3.71e7 | 6.09e7 | 1.77e7 | 6.86e7 | inactive |
| CG9044 | DRSC03130 | 4.82e7 | – | 2.54e7 | – | inactive |
| eIF4EHP | DRSC13653 | 4.00e7 | 3.59e7 | 1.88e7 | 1.90e7 | inactive |
| eIF4EHP | DRSC14265 | 3.22e7 | 3.19e7 | 1.61e7 | 1.44e7 | inactive |
| Alg10 (ALG10 alpha-1,2-glucosyltransferase) | DRSC10892 | 2.94e7 | 4.77e7 | 1.47e7 | 2.09e7 | inactive |
| vib (vibrator) | DRSC17094 | 3.36e7 | 2.72e7 | 1.72e7 | 1.32e7 | inactive |
| CG16995 | DRSC00480 | 4.41e7 | 4.86e7 | 1.99e7 | 2.18e7 | inactive |
| Vps11 (Vacuolar protein sorting 11) | DRSC11909 | 4.11e7 | 4.41e7 | 1.91e7 | 1.99e7 | inactive |
| Vps11 (Vacuolar protein sorting 11) | DRSC21579 | 3.77e7 | 3.09e7 | 2.30e7 | 1.53e7 | inactive |
| flr (flare) | DRSC09787 | 4.15e7 | 6.39e7 | 2.48e7 | 4.06e7 | inactive |
| lncRNA:mimi (mimi) | DRSC21429 | 4.47e7 | 3.43e7 | 2.48e7 | 1.65e7 | inactive |
| CR31824 (pseudo) | DRSC01517 | 3.15e7 | 4.47e7 | 1.83e7 | 2.07e7 | inactive |
| CG9837 | DRSC16573 | 5.69e7 | 3.72e7 | 2.63e7 | 1.84e7 | inactive |
| CG12420 | DRSC14514 | 3.21e7 | 4.42e7 | 1.59e7 | 1.99e7 | inactive |
| Saysd1 (SAYSVFN motif domain containing 1) | DRSC14664 | 4.51e7 | 6.39e7 | 2.16e7 | 2.77e7 | inactive |
| holn1 (hole-in-one) | DRSC02827 | 4.01e7 | – | 2.18e7 | – | inactive |
| holn1 (hole-in-one) | DRSC22822 | 3.48e7 | 3.29e7 | 1.69e7 | 1.58e7 | inactive |
| CG42834 | DRSC13234 | 4.17e7 | 2.28e7 | 1.90e7 | 1.18e7 | inactive |
| obst-F (obstructor-F) | DRSC10805 | 1.78e7 | 3.03e7 | 9.29e6 | 1.57e7 | inactive |
| CG13494 | DRSC04139 | 4.93e7 | 4.96e7 | 2.35e7 | 2.23e7 | inactive |
| salt (salty dog) | DRSC15427 | 5.60e7 | 4.86e7 | 2.11e7 | 2.14e7 | inactive |
| CG33003 | DRSC22419 | 4.42e7 | 3.33e7 | 2.07e7 | 1.37e7 | inactive |
| tgo (tango) | DRSC17077 | 4.21e7 | 4.33e7 | 1.81e7 | 1.99e7 | inactive |
| beat-Ia (beaten path Ia) | DRSC03489 | 4.73e7 | 3.64e7 | 2.00e7 | 1.59e7 | inactive |
| CG14507 | DRSC14859 | 3.20e7 | 4.53e7 | 1.70e7 | 2.10e7 | inactive |

Single entries from the entries so far:
CG11050 [DRSC02125], Call = inactive
CG14507 [DRSC14859], calcium entry signal, replicate 1 (fluorescence units) → 3.20e7
Rab7 [DRSC16810], resting calcium signal, replicate 2 (fluorescence units) → 1.32e7
Under “calcium entry signal, replicate 2 (fluorescence units)”, PQBP1 (Poly-glutamine tract binding protein 1) [DRSC14393] is entered as 4.03e7
For “calcium entry signal, replicate 2 (fluorescence units)”, eIF4EHP [DRSC14265] is entered as 3.19e7
